# Results are given in words; binding and its absence hold for the method and conditions named. Where a sequence is shown, tags or fusion partners need not be part of it.
# T1: polyphosphate kinase PPK, T25 fusion from plasmid pPPK12 (pKNT25) (E. coli MG1655) (UniProt P0A7B1)
# T1 sequence: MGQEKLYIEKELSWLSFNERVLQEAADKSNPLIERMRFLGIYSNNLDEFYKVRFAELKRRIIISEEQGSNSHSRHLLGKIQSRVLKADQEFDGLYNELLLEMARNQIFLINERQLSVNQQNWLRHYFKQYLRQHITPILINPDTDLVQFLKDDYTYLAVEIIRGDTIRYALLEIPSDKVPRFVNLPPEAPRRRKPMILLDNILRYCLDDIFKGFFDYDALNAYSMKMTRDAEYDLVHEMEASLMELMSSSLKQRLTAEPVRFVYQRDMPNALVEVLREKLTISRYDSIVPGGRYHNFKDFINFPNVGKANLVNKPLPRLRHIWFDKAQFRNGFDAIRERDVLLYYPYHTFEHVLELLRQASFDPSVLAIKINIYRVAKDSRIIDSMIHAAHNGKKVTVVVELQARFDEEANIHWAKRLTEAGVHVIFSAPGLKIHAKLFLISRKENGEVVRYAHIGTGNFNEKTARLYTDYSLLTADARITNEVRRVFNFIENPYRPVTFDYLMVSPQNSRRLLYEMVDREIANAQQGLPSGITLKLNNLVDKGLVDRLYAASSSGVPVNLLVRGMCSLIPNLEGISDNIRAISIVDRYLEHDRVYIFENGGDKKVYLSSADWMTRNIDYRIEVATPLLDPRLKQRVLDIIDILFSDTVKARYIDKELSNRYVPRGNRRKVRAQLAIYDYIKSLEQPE
# T2: polyphosphate kinase PPK, T25 fusion from plasmid pPPK13 (pKT25) (E. coli MG1655) (UniProt P0A7B1)
# T2 sequence: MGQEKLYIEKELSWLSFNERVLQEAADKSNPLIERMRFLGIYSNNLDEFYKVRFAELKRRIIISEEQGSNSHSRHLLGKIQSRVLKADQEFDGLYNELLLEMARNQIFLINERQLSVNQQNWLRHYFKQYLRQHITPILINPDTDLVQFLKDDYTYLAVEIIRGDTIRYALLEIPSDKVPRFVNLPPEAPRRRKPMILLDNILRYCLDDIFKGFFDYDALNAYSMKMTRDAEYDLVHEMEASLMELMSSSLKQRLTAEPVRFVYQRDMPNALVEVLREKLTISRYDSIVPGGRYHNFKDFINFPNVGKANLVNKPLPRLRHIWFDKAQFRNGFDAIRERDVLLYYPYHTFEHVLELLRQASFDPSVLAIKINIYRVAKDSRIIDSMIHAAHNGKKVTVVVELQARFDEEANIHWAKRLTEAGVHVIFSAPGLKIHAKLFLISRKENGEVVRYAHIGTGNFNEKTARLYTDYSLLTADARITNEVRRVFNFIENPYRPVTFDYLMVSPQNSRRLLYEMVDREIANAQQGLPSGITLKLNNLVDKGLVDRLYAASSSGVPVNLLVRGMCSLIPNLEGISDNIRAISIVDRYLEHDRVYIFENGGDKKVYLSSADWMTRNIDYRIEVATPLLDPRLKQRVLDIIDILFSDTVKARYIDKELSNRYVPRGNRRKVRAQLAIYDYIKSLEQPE
# B1: nitrogen phosphotransferase regulator PtsN (EIIA^Ntr), T18 fusion from plasmid pPTSN5 (protein, UniProt P69829 1-163)
# chain: MTNNDTTLQLSSVLNRECTRSRVHCQSKKRALEIISELAAKQLSLPPQVVFEAILTREKMGSTGIGNGIAIPHGKLEEDTLRAVGVFVQLETPIAFDAIDNQPVDLLFALLVPADQTKTHLHTLSLVAKRLADKTICRRLRAAQSDEELYQIITDTEGTPDEA
# How the values were obtained:
# [1] = molecular target: T1, polyphosphate kinase PPK, T25 fusion from plasmid pPPK12 (pKNT25) (E. coli MG1655); experiment: two-hybrid
# [2] = molecular target: T2, polyphosphate kinase PPK, T25 fusion from plasmid pPPK13 (pKT25) (E. coli MG1655); experiment: two-hybrid
binder,measurement,setting,value
B1,binding,[1],no binding
same,binding,[2],no binding

# Source: doi:10.1101/2021.10.15.464621
